Source: publication PMC4567317
Results are given in words; binding and its absence hold for the method and conditions named. Binding can be weak; no strength is given.

How the values were obtained:
[1] = molecular target: XlnR (Penicillium oxalicum 114-2) (UniProt S7ZQM9); assay: two-hybrid; Matchmaker GAL4 two-hybrid system 3; AD-X (pGAD-T7) and BD-X (pGBK-T7) co-transformed into S. cerevisiae AH109; growth on SD plates without Leu, Trp and His (legend: SD/-Ade/-His/-Leu/-Trp)
[2] = molecular target: AmyR (Penicillium oxalicum 114-2) (UniProt S8ASG9); assay: as above

binding [1]	binding [2]	Substance
binds	–	AmyR (from UniProt S8ASG9)
binds	binds	ClrB (from UniProt S7ZK86)
binds	–	CreA (from UniProt S8B1J6)
